Results as given in PMC6461666.
Results are given in words; binding and its absence hold for the method and conditions named. In cells and extracts the contact can be indirect. Some binding calls cover weakened binding; strength is not graded here. Where a sequence is shown, tags or fusion partners need not be part of it.

T1: FLAG-RNF169 (UniProt Q8NCN4)
T1 sequence: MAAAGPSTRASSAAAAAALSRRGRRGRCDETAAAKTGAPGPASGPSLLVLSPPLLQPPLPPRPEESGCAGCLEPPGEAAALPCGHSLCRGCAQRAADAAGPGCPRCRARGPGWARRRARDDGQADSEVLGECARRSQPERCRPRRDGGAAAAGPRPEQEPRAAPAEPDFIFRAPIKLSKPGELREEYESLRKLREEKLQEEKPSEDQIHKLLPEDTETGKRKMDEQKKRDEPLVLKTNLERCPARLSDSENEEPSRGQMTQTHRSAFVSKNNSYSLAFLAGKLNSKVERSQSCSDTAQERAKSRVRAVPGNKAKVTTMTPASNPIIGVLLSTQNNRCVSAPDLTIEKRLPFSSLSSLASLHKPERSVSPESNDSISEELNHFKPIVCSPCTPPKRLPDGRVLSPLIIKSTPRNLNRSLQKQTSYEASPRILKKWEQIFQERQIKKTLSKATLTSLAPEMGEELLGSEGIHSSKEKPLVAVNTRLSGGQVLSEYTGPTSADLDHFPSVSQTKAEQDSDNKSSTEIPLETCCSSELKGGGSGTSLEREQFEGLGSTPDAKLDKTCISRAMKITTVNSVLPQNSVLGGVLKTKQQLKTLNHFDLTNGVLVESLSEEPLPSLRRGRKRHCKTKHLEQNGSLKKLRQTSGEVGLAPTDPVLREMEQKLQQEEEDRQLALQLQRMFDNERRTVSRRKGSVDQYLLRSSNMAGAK

T2: MBP-RNF169 (UniProt Q8NCN4)
T2 sequence: T1 sequence

B1: DCAF7 (endogenous, HEK-293T) (protein, UniProt P61962 1-342)
chain: MSLHGKRKEIYKYEAPWTVYAMNWSVRPDKRFRLALGSFVEEYNNKVQLVGLDEESSEFICRNTFDHPYPTTKLMWIPDTKGVYPDLLATSGDYLRVWRVGETETRLECLLNNNKNSDFCAPLTSFDWNEVDPYLLGTSSIDTTCTIWGLETGQVLGRVNLVSGHVKTQLIAHDKEVYDIAFSRAGGGRDMFASVGADGSVRMFDLRHLEHSTIIYEDPQHHPLLRLCWNKQDPNYLATMAMDGMEVVILDVRVPCTPVARLNNHRACVNGIAWAPHSSCHICTAADDHQALIWDIQQMPRAIEDPILAYTAEGEINNVQWASTQPDWIAICYNNCLEILRV
B2: HA-DCAF7 (protein, UniProt P61962 1-342)
chain: B1 chain

Assays:
FLAG-RNF169 = target: T1, FLAG-RNF169; experiment: co-IP; HEK-293T soluble extracts transiently expressing tagged DYRK1A and RNF169 versions; immunoprecipitation with anti-FLAG (Fig. 3C, 4B, 4C, 4E) or anti-HA (Fig. 4A); binding buffer 50 mM Hepes pH 7.4, 150 mM NaCl, 2 mM EDTA, 1% NP-40; Western blot
MBP-RNF169 = target: T2, MBP-RNF169; experiment: pull-down; MBP-RNF169 expressed in bacteria as bait; HEK-293T extracts expressing FLAG-DYRK1A alone or together with HA-DCAF7 as preys; Western blot with antibodies to the tags; only the target purified

Row | Binder | binding (FLAG-RNF169) | binding (MBP-RNF169)
1 | B1 | binds | 
2 | B2 |  | binds
